These are yes or no findings as the source states them, for the method shown. For some of these results: Binding seen in cells or lysates may run through a third protein. Some binding calls cover weakened binding; strength is not graded here.
Columns and labels:
[1] = target: PSMB2-HB (20S subunit PSMB2 tagged with TEV protease-cleavable hexahistidine-biotin) (human) (UniProt P49721); test: pull-down
[2] = target: PSMD14-HB (19S subunit PSMD14 tagged with TEV protease-cleavable hexahistidine-biotin) (human) (UniProt O00487); test: pull-down
[3] = target: PSMD14-HB (19S subunit PSMD14 tagged with TEV protease-cleavable hexahistidine-biotin) (human) (UniProt O00487); test: native gel or EMSA

Chains of the proteins cited; added tags and fusions are not shown. Residues count along the entry.
UniProt P49721: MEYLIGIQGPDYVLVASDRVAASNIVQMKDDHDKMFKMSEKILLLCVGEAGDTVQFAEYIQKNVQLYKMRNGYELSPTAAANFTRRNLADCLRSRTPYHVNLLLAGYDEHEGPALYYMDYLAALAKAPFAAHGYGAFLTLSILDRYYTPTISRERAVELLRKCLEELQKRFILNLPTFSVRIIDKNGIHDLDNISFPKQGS
UniProt O00487: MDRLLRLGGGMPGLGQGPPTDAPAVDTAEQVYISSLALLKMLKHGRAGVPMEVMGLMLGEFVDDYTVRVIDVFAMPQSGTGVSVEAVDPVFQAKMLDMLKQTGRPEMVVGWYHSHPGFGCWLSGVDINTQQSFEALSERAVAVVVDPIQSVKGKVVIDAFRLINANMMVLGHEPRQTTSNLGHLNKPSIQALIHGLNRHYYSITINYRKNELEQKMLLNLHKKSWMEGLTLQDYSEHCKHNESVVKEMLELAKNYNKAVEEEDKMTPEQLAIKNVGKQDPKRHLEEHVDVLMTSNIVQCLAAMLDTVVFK
UniProt P54727: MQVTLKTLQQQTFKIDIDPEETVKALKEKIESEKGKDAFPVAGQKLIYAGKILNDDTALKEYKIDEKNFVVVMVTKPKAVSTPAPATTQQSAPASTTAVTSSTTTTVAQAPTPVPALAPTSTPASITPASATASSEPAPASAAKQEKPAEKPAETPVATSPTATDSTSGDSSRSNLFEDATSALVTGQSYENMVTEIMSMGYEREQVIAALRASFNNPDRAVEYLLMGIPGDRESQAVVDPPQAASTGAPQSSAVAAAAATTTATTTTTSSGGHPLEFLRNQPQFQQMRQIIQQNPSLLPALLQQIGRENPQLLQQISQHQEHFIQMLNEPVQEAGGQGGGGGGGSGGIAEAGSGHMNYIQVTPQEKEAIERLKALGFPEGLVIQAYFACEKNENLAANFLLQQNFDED
UniProt Q5VYK3: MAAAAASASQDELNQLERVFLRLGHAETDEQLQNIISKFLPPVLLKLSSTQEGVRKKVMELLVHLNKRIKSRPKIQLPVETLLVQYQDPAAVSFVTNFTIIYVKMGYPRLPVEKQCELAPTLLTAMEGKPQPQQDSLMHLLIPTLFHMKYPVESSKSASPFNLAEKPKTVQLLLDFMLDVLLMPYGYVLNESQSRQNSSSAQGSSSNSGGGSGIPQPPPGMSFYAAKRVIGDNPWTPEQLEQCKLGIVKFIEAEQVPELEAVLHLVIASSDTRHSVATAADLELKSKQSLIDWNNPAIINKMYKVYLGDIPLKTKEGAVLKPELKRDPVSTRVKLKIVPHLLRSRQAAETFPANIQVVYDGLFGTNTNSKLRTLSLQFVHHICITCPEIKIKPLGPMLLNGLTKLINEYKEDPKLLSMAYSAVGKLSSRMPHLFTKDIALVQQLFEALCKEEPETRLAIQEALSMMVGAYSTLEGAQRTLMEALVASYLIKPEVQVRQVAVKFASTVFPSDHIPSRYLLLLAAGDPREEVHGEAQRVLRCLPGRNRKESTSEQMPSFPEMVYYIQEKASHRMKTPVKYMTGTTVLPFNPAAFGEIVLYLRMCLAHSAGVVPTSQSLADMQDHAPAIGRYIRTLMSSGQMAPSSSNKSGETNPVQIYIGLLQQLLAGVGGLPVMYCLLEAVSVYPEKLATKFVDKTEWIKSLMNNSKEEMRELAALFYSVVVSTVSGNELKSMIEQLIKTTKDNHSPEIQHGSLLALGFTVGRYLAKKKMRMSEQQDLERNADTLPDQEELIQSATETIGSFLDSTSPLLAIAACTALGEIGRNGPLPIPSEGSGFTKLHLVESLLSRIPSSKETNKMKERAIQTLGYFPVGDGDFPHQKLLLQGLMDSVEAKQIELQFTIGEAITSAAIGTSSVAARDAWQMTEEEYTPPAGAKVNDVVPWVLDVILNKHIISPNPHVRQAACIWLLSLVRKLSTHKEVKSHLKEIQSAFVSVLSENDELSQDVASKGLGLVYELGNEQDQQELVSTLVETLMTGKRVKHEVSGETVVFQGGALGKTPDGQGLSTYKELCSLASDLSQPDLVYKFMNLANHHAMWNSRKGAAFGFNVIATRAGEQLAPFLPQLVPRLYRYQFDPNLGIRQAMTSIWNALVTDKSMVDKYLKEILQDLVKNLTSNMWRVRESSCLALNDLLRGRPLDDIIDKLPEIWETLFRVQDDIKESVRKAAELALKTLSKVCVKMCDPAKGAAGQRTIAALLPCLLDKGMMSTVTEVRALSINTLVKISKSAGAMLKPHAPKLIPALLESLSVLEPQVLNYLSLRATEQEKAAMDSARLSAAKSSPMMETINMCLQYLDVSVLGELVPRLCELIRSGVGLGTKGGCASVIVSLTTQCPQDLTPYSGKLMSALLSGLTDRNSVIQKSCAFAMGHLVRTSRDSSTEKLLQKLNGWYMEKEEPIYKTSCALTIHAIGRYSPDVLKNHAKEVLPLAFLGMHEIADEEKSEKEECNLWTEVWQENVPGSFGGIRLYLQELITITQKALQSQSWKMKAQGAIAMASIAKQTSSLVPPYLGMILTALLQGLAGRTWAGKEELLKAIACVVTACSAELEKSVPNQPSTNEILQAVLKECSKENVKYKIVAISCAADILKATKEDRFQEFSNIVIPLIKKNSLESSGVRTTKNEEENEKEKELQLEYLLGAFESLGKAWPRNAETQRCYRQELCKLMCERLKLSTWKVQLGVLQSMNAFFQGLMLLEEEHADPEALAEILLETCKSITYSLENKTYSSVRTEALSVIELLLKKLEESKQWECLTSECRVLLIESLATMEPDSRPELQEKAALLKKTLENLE
UniProt P28072, residues 35-239: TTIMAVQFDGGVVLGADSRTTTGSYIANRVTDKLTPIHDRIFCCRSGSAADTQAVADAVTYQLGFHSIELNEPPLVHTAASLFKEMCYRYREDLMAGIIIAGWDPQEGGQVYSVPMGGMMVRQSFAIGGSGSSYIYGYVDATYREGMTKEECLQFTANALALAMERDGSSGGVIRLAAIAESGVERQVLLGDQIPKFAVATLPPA
UniProt P54725: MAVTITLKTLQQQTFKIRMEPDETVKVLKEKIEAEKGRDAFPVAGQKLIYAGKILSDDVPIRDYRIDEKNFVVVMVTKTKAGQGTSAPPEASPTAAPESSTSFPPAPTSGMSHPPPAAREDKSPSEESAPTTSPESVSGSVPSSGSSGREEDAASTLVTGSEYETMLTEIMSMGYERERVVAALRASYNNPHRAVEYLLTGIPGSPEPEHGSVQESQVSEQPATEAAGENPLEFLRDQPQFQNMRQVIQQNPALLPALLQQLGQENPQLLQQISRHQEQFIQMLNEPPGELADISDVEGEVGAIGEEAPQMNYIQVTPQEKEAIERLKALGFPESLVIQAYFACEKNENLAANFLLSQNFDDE

## RAD23B (from UniProt P54727 1-409)
[1]
  binding: binds

## Ecm29 proteasome adaptor and scaffold (ECPAS) (from UniProt Q5VYK3 1-1845)
[1]
  binding: binds
[2]
  binding: binds
[3]
  binding: binds

## VCP/p97 (from UniProt P55072 1-806)
[1]
  binding: binds

## PSMB6 (from UniProt P28072 35-239)
[1]
  binding: binds

## RAD23A (from UniProt P54725 1-363)
[1]
  binding: binds
